These are yes or no findings as the source states them, for the method shown. Binding calls can cover weak binding; strength is not graded here.
Biological target: IL-34 (species not stated)
Assay: summary of the binding results of Tables 2, 3 and 4

binding: binds
B1: Antibody 3 (antibody, mouse IgG1, kappa, V domains shown)
VH: EVQLLESGGGLVQPGGSLRLSCAASGFTFSYYAMSWVRQAPGKGLEWVSAISHRGGSTLYADSVKGRFTISRDNSKNTLYLQMNSLRAEDTAVYYCARGRSSLDGWGQGTMVTVSS
VL: EIVLTQSPGILSLSPGERASLSCRASTSVSSAYLAWYQQKPGQAPRLLIYASSHRPLGIPDRFSGSGSGTDFTLTISRLEPEDFAVYYCQQYGDSLSFGGGTKVEIKR

From patent US20210363232A1
